Results are given in words; binding and its absence hold for the method and conditions named. In cells and extracts the contact can be indirect. Binding can be weak; no strength is given. Where a sequence is shown, tags or fusion partners need not be part of it.
Target: T1, myc-tagged carboxy-terminal 347 amino acids of GKAP-3 expressed in HEK293 cells (rat) (UniProt P97838)
T1 sequence (looked up): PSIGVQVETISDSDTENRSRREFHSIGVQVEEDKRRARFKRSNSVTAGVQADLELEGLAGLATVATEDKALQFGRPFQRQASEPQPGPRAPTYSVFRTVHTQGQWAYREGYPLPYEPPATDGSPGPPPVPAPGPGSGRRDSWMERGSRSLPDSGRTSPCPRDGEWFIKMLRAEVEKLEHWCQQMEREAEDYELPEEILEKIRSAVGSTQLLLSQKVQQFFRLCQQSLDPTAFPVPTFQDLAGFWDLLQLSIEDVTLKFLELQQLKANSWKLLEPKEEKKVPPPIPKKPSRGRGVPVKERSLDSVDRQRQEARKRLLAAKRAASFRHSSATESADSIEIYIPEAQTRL
Assay: GST pull-down from HEK293 lysate

- binding: binds
Substance: GST fusion of Shank3 PDZ domain (residues 559-673)
